Laboratory results reported in PMC3911973.
These are yes or no findings as the source states them, for the method shown. Binding seen in cells or lysates may run through a third protein. Some entries that bind do so weakly or less than the wild type. Tags and fused reporters may be left off the sequences shown.

T1: Kaiso (human (endogenous in SPC-A-1 and LTEP-a-2)) (UniProt Q86T24)
T1 sequence: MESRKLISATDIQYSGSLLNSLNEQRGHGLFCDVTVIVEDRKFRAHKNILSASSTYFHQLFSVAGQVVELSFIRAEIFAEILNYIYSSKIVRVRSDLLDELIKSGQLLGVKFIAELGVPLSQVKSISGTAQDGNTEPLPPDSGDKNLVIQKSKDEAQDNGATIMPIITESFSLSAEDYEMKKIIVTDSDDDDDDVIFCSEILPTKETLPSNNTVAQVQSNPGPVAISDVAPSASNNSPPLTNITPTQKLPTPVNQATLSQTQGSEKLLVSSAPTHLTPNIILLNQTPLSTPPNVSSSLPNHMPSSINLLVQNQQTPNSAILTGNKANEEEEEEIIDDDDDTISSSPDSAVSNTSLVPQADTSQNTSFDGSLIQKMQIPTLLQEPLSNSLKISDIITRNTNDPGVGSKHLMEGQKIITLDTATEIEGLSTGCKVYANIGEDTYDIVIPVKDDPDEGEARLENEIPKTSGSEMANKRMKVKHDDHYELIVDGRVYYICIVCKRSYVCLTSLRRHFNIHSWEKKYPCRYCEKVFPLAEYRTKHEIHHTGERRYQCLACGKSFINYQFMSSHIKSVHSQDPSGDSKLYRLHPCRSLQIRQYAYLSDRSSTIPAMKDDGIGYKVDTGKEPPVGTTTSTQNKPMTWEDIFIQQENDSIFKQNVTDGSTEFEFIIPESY

B1: p120ctn isoform 1A, DDK-MYC tagged (protein, UniProt O60716-5 1-933)
chain: MDDSEVESTASILASVKEQEAQFEKLTRALEEERRHVSAQLERVRVSPQDANPLMANGTLTRRHQNGRFVGDADLERQKFSDLKLNGPQDHSHLLYSTIPRMQEPGQIVETYTEEDPEGAMSVVSVETSDDGTTRRTETTVKKVVKTVTTRTVQPVAMGPDGLPVDASSVSNNYIQTLGRDFRKNGNGGPGPYVGQAGTATLPRNFHYPPDGYSRHYEDGYPGGSDNYGSLSRVTRIEERYRPSMEGYRAPSRQDVYGPQPQVRVGGSSVDLHRFHPEPYGLEDDQRSMGYDDLDYGMMSDYGTARRTGTPSDPRRRLRSYEDMIGEEVPSDQYYWAPLAQHERGSLASLDSLRKGGPPPPNWRQPELPEVIAMLGFRLDAVKSNAAAYLQHLCYRNDKVKTDVRKLKGIPVLVGLLDHPKKEVHLGACGALKNISFGRDQDNKIAIKNCDGVPALVRLLRKARDMDLTEVITGTLWNLSSHDSIKMEIVDHALHALTDEVIIPHSGWEREPNEDCKPRHIEWESVLTNTAGCLRNVSSERSEARRKLRECDGLVDALIFIVQAEIGQKDSDSKLVENCVCLLRNLSYQVHREIPQAERYQEAAPNVANNTGPHAASCFGAKKGKGKKPIEDPANDTVDFPKRTSPARGYELLFQPEVVRIYISLLKESKTPAILEASAGAIQNLCAGRWTYGRYIRSALRQEKALSAIADLLTNEHERVVKAASGALRNLAVDARNKELIGKHAIPNLVKNLPGGQQNSSWNFSEDTVISILNTINEVIAENLEAAKKLRETQGIEKLVLINKSGNRSEKEVRAAALVLQTIWGYKELRKPLEKEGWKKSDFQVNLNNASRSQSSHSYDDSTLPLIDRNQKSDKKPDREEIQMSNMGSNTKSLDNNYSTPNERGDHNRTLDRSGDLGDMEPLKGTTPLMQKI
B2: p120ctn isoform 3A, DDK-MYC tagged (protein, UniProt O60716-21 1-832)
chain: MQEPGQIVETYTEEDPEGAMSVVSVETSDDGTTRRTETTVKKVVKTVTTRTVQPVAMGPDGLPVDASSVSNNYIQTLGRDFRKNGNGGPGPYVGQAGTATLPRNFHYPPDGYSRHYEDGYPGGSDNYGSLSRVTRIEERYRPSMEGYRAPSRQDVYGPQPQVRVGGSSVDLHRFHPEPYGLEDDQRSMGYDDLDYGMMSDYGTARRTGTPSDPRRRLRSYEDMIGEEVPSDQYYWAPLAQHERGSLASLDSLRKGGPPPPNWRQPELPEVIAMLGFRLDAVKSNAAAYLQHLCYRNDKVKTDVRKLKGIPVLVGLLDHPKKEVHLGACGALKNISFGRDQDNKIAIKNCDGVPALVRLLRKARDMDLTEVITGTLWNLSSHDSIKMEIVDHALHALTDEVIIPHSGWEREPNEDCKPRHIEWESVLTNTAGCLRNVSSERSEARRKLRECDGLVDALIFIVQAEIGQKDSDSKLVENCVCLLRNLSYQVHREIPQAERYQEAAPNVANNTGPHAASCFGAKKGKGKKPIEDPANDTVDFPKRTSPARGYELLFQPEVVRIYISLLKESKTPAILEASAGAIQNLCAGRWTYGRYIRSALRQEKALSAIADLLTNEHERVVKAASGALRNLAVDARNKELIGKHAIPNLVKNLPGGQQNSSWNFSEDTVISILNTINEVIAENLEAAKKLRETQGIEKLVLINKSGNRSEKEVRAAALVLQTIWGYKELRKPLEKEGWKKSDFQVNLNNASRSQSSHSYDDSTLPLIDRNQKSDKKPDREEIQMSNMGSNTKSLDNNYSTPNERGDHNRTLDRSGDLGDMEPLKGTTPLMQKI

Biological target: T1, Kaiso (human (endogenous in SPC-A-1 and LTEP-a-2))
Assay: co-IP; lysates (IP cell lysis buffer, 1 mM PMSF) of SPC and LTE cells transfected with DDK-MYC tagged p120ctn-1A or -3A; precipitated with anti-Kaiso (Abcam) and Protein A+G agarose, 3 h at 4°C; mouse IgG and PBS as controls; blotted for p120ctn and MYC

Binder | binding
B1 | binds
B2 | binds
